Residue numbers refer to the chain shown, from its start. No constants are given. Whether binding was seen depends on the method and setting. Binding seen in cells or lysates may run through a third protein. Some results given as binding are weak or reduced against the parent protein; the word gives no strength. Tags and fused reporters may be left off the sequences shown.
How the values were obtained:
[1] = molecular target: T1, HA-REST (unmutated wild type, full-length RE1 Silencing Transcription factor) (human) (UniProt Q13127); experiment: GST pull-down from co-transfected HEK cells, Western blot
T1 sequence (serines 861 and 864 phosphorylated in cells, extent not stated, looked up): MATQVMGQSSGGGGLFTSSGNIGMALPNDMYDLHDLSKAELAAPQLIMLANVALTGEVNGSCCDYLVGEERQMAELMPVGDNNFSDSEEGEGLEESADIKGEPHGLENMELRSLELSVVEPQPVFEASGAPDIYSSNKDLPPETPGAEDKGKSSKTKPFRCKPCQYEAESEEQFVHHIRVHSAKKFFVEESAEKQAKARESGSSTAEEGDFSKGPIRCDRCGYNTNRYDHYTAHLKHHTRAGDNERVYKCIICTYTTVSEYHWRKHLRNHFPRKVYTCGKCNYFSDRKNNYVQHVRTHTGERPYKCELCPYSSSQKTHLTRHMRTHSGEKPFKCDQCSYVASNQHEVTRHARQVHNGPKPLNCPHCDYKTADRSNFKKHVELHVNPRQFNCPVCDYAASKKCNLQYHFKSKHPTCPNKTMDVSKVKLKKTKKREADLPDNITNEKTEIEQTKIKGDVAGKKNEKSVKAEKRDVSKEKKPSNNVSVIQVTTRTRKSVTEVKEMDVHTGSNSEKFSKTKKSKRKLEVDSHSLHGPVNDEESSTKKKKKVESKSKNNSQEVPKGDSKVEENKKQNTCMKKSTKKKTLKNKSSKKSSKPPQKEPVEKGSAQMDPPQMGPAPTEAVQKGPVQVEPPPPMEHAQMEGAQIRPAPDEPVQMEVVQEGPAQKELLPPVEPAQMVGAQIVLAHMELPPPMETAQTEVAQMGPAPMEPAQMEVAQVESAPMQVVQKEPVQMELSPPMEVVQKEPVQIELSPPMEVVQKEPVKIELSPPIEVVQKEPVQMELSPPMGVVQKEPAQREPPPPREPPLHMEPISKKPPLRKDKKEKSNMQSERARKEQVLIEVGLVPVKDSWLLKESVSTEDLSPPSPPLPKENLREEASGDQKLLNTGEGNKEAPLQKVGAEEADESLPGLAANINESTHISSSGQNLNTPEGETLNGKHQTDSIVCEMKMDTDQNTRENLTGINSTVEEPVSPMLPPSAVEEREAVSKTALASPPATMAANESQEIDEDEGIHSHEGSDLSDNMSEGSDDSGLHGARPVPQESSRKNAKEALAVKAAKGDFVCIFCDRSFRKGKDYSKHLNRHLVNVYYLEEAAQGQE

Protein sequences, listed by entry. Tags and fused reporters are not part of them.
UniProt Q9Y297: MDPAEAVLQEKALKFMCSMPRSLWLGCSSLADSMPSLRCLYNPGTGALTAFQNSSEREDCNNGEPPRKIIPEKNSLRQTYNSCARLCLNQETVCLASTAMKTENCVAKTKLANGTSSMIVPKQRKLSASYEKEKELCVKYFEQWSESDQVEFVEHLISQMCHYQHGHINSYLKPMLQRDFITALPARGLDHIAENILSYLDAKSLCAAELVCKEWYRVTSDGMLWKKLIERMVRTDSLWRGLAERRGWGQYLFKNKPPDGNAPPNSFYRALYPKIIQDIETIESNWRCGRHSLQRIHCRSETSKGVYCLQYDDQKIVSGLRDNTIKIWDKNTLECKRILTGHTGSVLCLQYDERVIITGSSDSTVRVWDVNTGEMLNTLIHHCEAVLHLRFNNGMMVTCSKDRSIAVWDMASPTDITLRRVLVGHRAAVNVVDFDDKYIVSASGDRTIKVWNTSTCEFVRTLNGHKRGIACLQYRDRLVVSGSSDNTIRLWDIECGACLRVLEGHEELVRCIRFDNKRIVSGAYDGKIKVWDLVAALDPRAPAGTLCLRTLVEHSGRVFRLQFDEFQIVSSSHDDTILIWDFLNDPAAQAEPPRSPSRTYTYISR
UniProt Q9UKL0: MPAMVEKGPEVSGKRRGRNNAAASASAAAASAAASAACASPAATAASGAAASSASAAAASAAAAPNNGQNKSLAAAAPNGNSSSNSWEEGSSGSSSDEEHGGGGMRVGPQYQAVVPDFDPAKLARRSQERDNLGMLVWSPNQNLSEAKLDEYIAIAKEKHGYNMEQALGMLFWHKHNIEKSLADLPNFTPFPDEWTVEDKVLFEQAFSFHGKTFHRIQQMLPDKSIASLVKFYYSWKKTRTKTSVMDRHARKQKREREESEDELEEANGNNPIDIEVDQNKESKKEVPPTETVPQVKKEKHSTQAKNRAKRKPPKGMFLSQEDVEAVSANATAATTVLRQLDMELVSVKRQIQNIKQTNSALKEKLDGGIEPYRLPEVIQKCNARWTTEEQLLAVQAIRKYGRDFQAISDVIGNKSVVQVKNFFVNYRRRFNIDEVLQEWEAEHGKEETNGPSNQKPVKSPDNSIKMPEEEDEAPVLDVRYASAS

[2] = molecular target: T1, HA-REST (unmutated wild type, full-length RE1 Silencing Transcription factor) (human); experiment: GST pull-down from co-transfected HEK293T cells, Western blot
[3] = molecular target: T2, FLAG-REST (unmutated, full-length) (human) (UniProt Q13127); experiment: co-immunoprecipitation from transfected HEK293T cells with or without the Pin1 inhibitor PiB, Western blot
T2 sequence (serines 861 and 864 phosphorylated in cells, extent not stated, looked up): T1 sequence (serines 861 and 864 phosphorylated in cells, extent not stated, looked up)

[4] = molecular target: T3, S861A/S864A REST (full-length; tag not stated for this experiment) (human) (UniProt Q13127); experiment: co-immunoprecipitation, Western blot
T3 sequence (looked up): T1 sequence (serines 861 and 864 phosphorylated in cells, extent not stated, looked up) with S861A, S864A

[5] = molecular target: T4, REST (unmutated, full-length; tag not stated for this experiment) (human) (UniProt Q13127); experiment: co-immunoprecipitation from transfected HEK cells, Western blot
T4 sequence (serines 861 and 864 phosphorylated in cells, extent not stated, looked up): T1 sequence (serines 861 and 864 phosphorylated in cells, extent not stated, looked up)

[6] = molecular target: T3, S861A/S864A REST (full-length; tag not stated for this experiment) (human); experiment: as above

Measured: binding

GST-βTrCP (from UniProt Q9Y297 1-605)
binds: [1] | [2] | [3]

CoREST (from UniProt Q9UKL0 1-485)
binds: [4] | [5] | [6]
